From PubChem BioAssay AID504467 (National Center for Advancing Translational Sciences (NCATS), 2011)
The whole screen tested about 330,000 compounds, of which about 7,700 (2.3%) were called active. This list was built around the results that the source calls inconclusive (neither active nor inactive); the mix of calls is not that of the screen. Calls follow the shape of the dose curve; as a rule, active = well fitted inhibition curve with a large enough effect; inconclusive = small, poorly fitted or top-dose-only effect, or effect the other way; inactive = flat fitted curve, though single readings scatter. Potencies beside an inconclusive call are fits to weak or partial responses and may not hold up.

Test: qHTS screen for small molecules that inhibit ELG1-dependent DNA repair in human embryonic kidney (HEK293T) cells expressing luciferase-tagged ELG1; also: nearly all actives have a fitted effect of over 55% in size
Settings: HEK293T ELG1-luciferase reporter, luminescence, 16 h, DNA damage induced by 5-fluorouridine; series mostly up to 46.1 µM
Procedure, shortened: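 Luminescence from the luciferase reporter, measured 30 min after ONE-Glo reagent at room temperature, was the read-out. Beforehand, 2,000 cells per well were exposed for 16 hr at 37 °C to 5-fluorouridine together with compound or vehicle.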
Potency is read from the fitted curve at half-maximal effect.

Row | Compound | Potency
1 | Cc1nc2ccccn2c1-c1csc(Nc2cccc(O)c2)n1 | inconclusive: 20.6 µM [activator, single point]
2 | O=C(NCCOc1ccccc1)c1cccc(S(=O)(=O)NCc2ccccc2)c1 | inconclusive: 18.3 µM [inhibitor, single point]
3 | Oc1ccc(/C=N/Nc2ncc(Cl)cc2Cl)cc1 | inconclusive: 18.3 µM [activator, partial curve]
4 | COc1ccc(-c2nc(C#N)c(N3CCCCC3)o2)cc1 | inconclusive: 29.1 µM [inhibitor, single point]
5 | Cc1ccc(-n2c(CSc3nc(C)cc(C)n3)nnc2SCC(=O)NCc2ccco2)cc1 | inconclusive: 20.6 µM [inhibitor, single point]
6 | CC(=O)N1CCc2cc(S(=O)(=O)Nc3cccc(C(F)(F)F)c3)ccc21 | inconclusive: 11.6 µM [inhibitor, partial curve, poor fit]
7 | O=C(C1CCN(S(=O)(=O)c2ccc3c(c2)OCCO3)CC1)N1CCc2ccccc21 | active: 23.1 µM
8 | CCn1cc(C(=O)O)c(=O)c2cnc(N3CCN(C(=S)Nc4ccccc4C(F)(F)F)CC3)nc21 | active: 14.6 µM
9 | N#Cc1c(-c2cccs2)cc(-c2cccnc2)nc1N | inactive
10 | COc1cccc(CN2CCN(C(=O)C3CCC(=O)N(C4CCCC4)C3)CC2)c1 (stereo not given) | inactive
11 | O=S(=O)(c1ccc(Br)s1)N1CCNCC1 | inactive
12 | Cc1csc(CNC(=O)c2cc(COc3c(C)cccc3C)on2)n1 | inactive
13 | CNc1ccc(SC#N)cc1 | inconclusive: 16.4 µM [inhibitor, partial curve]
14 | Cn1cccc1C(=O)c1ccc(Cl)cc1Cl | inactive
15 | COCCNC(=S)N/N=C(\C)c1cc2ccccc2o1 | inconclusive: 5.17 µM [activator, partial curve, poor fit]
16 | CCN(CC)c1ccc(NC(=O)OC)cc1 | inconclusive: 16.4 µM [activator, partial curve, poor fit]
17 | COCCN(C(=S)Nc1c(C)cccc1C)C(C)c1cccs1 (stereo not given) | inactive
18 | O=C(CSc1nnc(Cn2c(=O)sc3ccccc32)n1-c1ccccc1)N1CCOCC1 | inconclusive: 5.8 µM [activator, single point]
19 | COc1nc(Nc2ccc3c(c2)OCO3)nc(OC)n1 | inconclusive: 5.17 µM [inhibitor, single point]
20 | COc1ccc(C2=NOC(CNC(=S)N3CCOCC3)C2)cc1 (stereo not given) | inconclusive: 14.6 µM [activator, partial curve]
21 | O=C(Nc1ccccc1)Nc1cccc(Cl)c1 | inconclusive: 3.26 µM [activator, full curve]
22 | Cc1ccc(NC(=O)C2CCC(C(C)(C)C)CC2)cc1S(=O)(=O)N1CCOCC1 (stereo not given) | active: 23.1 µM
23 | Cc1ccc(-c2nsc(SCC(=O)NCc3ccc4c(c3)OCO4)n2)cc1 | inconclusive: 18.4 µM [activator, partial curve, poor fit]
24 | CN(NS(=O)(=O)c1ccc(Br)cc1)c1nc(C(F)(F)F)nc2ccccc12 | active: 20.6 µM

Row | Compound | Potency
25 | CCSc1nnc(NC(=O)COc2ccc(Cl)cc2)s1 | inactive
26 | Cc1ccc(C(=O)NCC(=O)Nc2ccc3c(c2)CCC3)cc1C | inconclusive: 25.9 µM [activator, single point]
27 | c1csc(Cc2nn3c(-c4ccncc4)nnc3s2)c1 | active: 10.3 µM
28 | Cc1nc(N2CCC(C)CC2)c2c(C)c(C(=O)Nc3cc(F)ccc3C)sc2n1 | inconclusive: 9.2 µM [inhibitor, single point]
29 | COCCCNC(=S)N/N=C/c1ccc(O)cc1 | inactive
30 | CCCCC[C@H](O)/C=C/[C@@H]1[C@@H](C/C=C\CCCC(=O)OC)[C@@H](O)C[C@H]1O | inconclusive: 14.6 µM [inhibitor, partial curve, poor fit]
31 | COc1ccc(N=Cc2sc3ccccc3c2Cl)cc1 | inconclusive: 32.6 µM [activator, partial curve, poor fit]
32 | COCc1ccc(-c2c(-c3ccsc3)oc(=O)c3cc(OC)c(OC)cc23)cc1 | inconclusive: 9.2 µM [inhibitor, partial curve, poor fit]
33 | O=[N+]([O-])c1ccc(O)c(C=Nc2ccc3nc(-c4ccccc4)[nH]c3c2)c1 | inconclusive: 5.8 µM [activator, partial curve]
34 | COc1cc(C(=O)NCc2nnc(SCC(=O)NC3CCCC3)o2)cc(OC)c1OC | inconclusive: 1.83 µM [inhibitor, full curve]
35 | C/C=C(/C)C(=O)OC1c2c(ccc3ccc(=O)oc23)OC(C)(C)C1OC(=O)/C(C)=C\C (stereo not given) | inconclusive: 18.3 µM [inhibitor, single point]
36 | COc1cc(/C=C(/C#N)c2nc3ccccc3c(=O)[nH]2)ccc1O | inconclusive: 18.4 µM [activator, partial curve]
37 | Cc1ccc(/C=N/NC(=O)COc2ccc(Cl)c(C)c2)o1 | inconclusive: 29.1 µM [activator, single point]
38 | Cc1ccc2nc(NCc3ccccc3)c(C#N)cc2c1 | inactive
39 | CCn1c(=O)c(C(=O)CN(C)CC(=O)Nc2ccccc2Br)c(N)n(Cc2ccccc2)c1=O | inconclusive: 29.1 µM [inhibitor, single point]
40 | Cc1ccc(NCc2ccc(Cl)nc2)c(NCc2ccc(Cl)nc2)c1 | inconclusive: 20.6 µM [inhibitor, single point]
41 | C=CCOc1c(CNc2ccc(S(N)(=O)=O)cc2)cccc1OC | inconclusive: 32.6 µM [inhibitor, single point]
42 | COc1ccc(CCNCc2ccccc2N2CCCC2)cc1 | inconclusive: 32.6 µM [inhibitor, partial curve, poor fit]
43 | O=C(CSc1nc2ccccc2o1)Nc1nc(-c2ccccc2)cs1 | inconclusive: 18.4 µM [activator, partial curve]
44 | Cc1ccccc1CS(=O)(=O)CCC(=O)NCCCN1CCN(c2ccccc2F)CC1 | inactive
45 | S=C(Nc1ccc(Cl)cc1)c1nc2ccccc2s1 | inconclusive: 18.4 µM [activator, partial curve]
46 | COc1ccc(S(=O)(=O)Nc2ccccc2SC)cc1C | inconclusive: 11.6 µM [inhibitor, partial curve, poor fit]
47 | Cc1ccccc1NC(=O)c1c(C)[nH]c(=S)c(C#N)c1-c1ccc(Cl)cc1 | inactive
48 | O=C(N/N=C/c1c(O)ccc2ccccc12)c1[nH]ncc1Br | inconclusive: 29.1 µM [activator, single point]

Row | Compound | Potency
49 | CC(NC(=O)c1ccccc1F)c1nnc(SCC(=O)NC2CCCC2)n1C (stereo not given) | inactive
50 | Cc1c(NC(=O)CSc2nc3ccccc3c(=O)n2C(C)C)c(=O)n(-c2ccccc2)n1C | inactive
51 | CCCCOC(=O)c1ccc(NC(=S)NC(=O)c2c(Br)c(C)nn2C)cc1 | inactive
52 | CCSc1ccc([C@@H]2[C@@H]3C(=O)N(CC)C(=O)[C@@H]3[C@]3(C(=O)OC)CCCN23)cc1 | inactive
53 | Cc1sc2ncnc(NC3CCN(Cc4ccccc4)CC3)c2c1C | active: 2.06 µM
54 | COc1ccc(CCNC(=O)c2cc3c(=O)n4cccc(C)c4nc3n(Cc3ccncc3)c2=N)cc1 | inactive
55 | Cc1nn(-c2ccccc2)c(N2CCCC2)c1/C=N/Nc1ccc(S(N)(=O)=O)cc1[N+](=O)[O-] | inconclusive: 29.1 µM [inhibitor, single point]
56 | c1ccc(-c2ccccc2OCCCN2CCOCC2)cc1 | inactive
57 | CCOC(=O)N1CCN(C(=O)CCCn2nc(C)c3sc4ccccc4c3c2=O)CC1 | inconclusive: 13 µM [inhibitor, partial curve, poor fit]
58 | COc1ccc(C(=O)NCCn2cc(SCC(=O)N3CCOCC3)c3ccccc32)cc1 | inconclusive: 35.5 µM [activator, single point]
59 | Cc1cccc(NC(=S)NC(=O)c2ccc(Br)o2)c1 | inconclusive: 20.6 µM [activator, partial curve]
60 | CN(Cc1cccnc1)Cc1cn[nH]c1-c1ccc(-c2ccccc2)cc1 | inconclusive: 2.06 µM [activator, full curve, poor fit]
61 | CCOc1ccc(S(=O)(=O)N(C)CCO)cc1-c1nc2c(C(C)(C)C)nn(C)c2c(=O)[nH]1 | inconclusive: 16.4 µM [inhibitor, partial curve]
62 | O=C(COC(=O)Cc1ccc(S(=O)(=O)N2CCCCC2)s1)Nc1ccc2c(c1)OCO2 | inactive
63 | Cn1c(=O)c2c(nc(CN3CCN(C(=O)c4ccco4)CC3)n2Cc2ccccc2F)n(C)c1=O | inconclusive: 13 µM [inhibitor, partial curve]
64 | CCOC(=O)c1c(C)[nH]c(C)c1C(=O)COC(=O)[C@@H]1CCCN1S(=O)(=O)c1ccc(Cl)cc1 | inactive
65 | COc1cccc(-c2nc(-c3ccc4c(c3)-c3ccccc3S4(=O)=O)c(-c3ccccc3)[nH]2)c1OC | active: 2.59 µM
66 | Cc1ccc2c(c1)C(=C(C#N)C#N)C(=O)N2CCN1CCCCC1 | inconclusive: 6.51 µM [activator, partial curve]
67 | CC(=O)Nc1ccc(-c2csc(NC(=O)CCCc3cccs3)n2)cc1 | active: 18.4 µM
68 | S=C(NCC1CCCO1)Nc1ccc(Cl)cc1 (stereo not given) | inconclusive: 18.4 µM [activator, single point]
69 | CCC1CCCCN1CCCNC(=O)C1CC(=O)N(CCc2ccccc2)C1 (stereo not given) | inconclusive: 16.4 µM [activator, partial curve, poor fit]
70 | CN1C(=O)[C@@H]2[C@@H]3C[C@@H]([C@H]4ON=C(c5ccc(Cl)cc5)[C@@H]34)[C@@H]2C1=O | inactive

Ordered by heavy-atom count (descending): part of the list above
Row | Compound | Potency
55 | Cc1nn(-c2ccccc2)c(N2CCCC2)c1/C=N/Nc1ccc(S(N)(=O)=O)cc1[N+](=O)[O-] | inconclusive: 29.1 µM [inhibitor, single point]
61 | CCOc1ccc(S(=O)(=O)N(C)CCO)cc1-c1nc2c(C(C)(C)C)nn(C)c2c(=O)[nH]1 | inconclusive: 16.4 µM [inhibitor, partial curve]
69 | CCC1CCCCN1CCCNC(=O)C1CC(=O)N(CCc2ccccc2)C1 (stereo not given) | inconclusive: 16.4 µM [activator, partial curve, poor fit]
60 | CN(Cc1cccnc1)Cc1cn[nH]c1-c1ccc(-c2ccccc2)cc1 | inconclusive: 2.06 µM [activator, full curve, poor fit]
59 | Cc1cccc(NC(=S)NC(=O)c2ccc(Br)o2)c1 | inconclusive: 20.6 µM [activator, partial curve]
68 | S=C(NCC1CCCO1)Nc1ccc(Cl)cc1 (stereo not given) | inconclusive: 18.4 µM [activator, single point]
